{
  "source": "patent US11278503B2",
  "about": "“Pharmaceutical compositions comprising semifluorinated alkanes for the treatment of contact lense-related conditions” (NOVALIQ GMBH, priority 2017, dated 2022)",
  "key": {"[1]": {"assay": "Material compatibility testing: lens parameters (diameter, BCOR, BVP) and physical appearance after immersion in SFA", "conditions": "for physical appearance / handling of lenses placed or stored in the SFA: Soflens 38 in undiluted SFA"}, "[2]": {"assay": "Material compatibility testing: mechanical properties (tensile testing) of lenses exposed to SFA", "conditions": "Soflens 38 lenses exposed to SFA 7 days; for E-Modulus, Mean / Elongation to break, Mean: mean of 9 samples"}},
  "note": "Where “and” joins values, the source holds several entries; their conditions need not be identical. Equal values may be shown once. Entries after “also recorded” stand apart in the source; their conditions may differ.",
  "data": [
    {"smiles": "CCCCCC(F)(F)C(F)(F)C(F)(F)C(F)(F)F", "note": "[F4H5, 1-perfluorobutyl-pentane]", "values": [
      {"measurement": "physical appearance / handling of lenses placed or stored in the SFA", "setting": "[1]", "value": "curl up upon themselves; also recorded: became folded"},
      {"measurement": "E-Modulus, Mean", "setting": "[2]", "value": 0.89, "unit": "MPa"},
      {"measurement": "Elongation to break, Mean", "setting": "[2]", "value": 137.74, "unit": "%"}
    ]},
    {"smiles": "CCCCCCCCC(F)(F)C(F)(F)C(F)(F)C(F)(F)C(F)(F)C(F)(F)F", "note": "[F6H8, 1-perfluorohexyl-octane]", "values": [
      {"measurement": "optics / BVP measurement directly after exposure", "setting": "[1]; Soflens 38 after 7 days in SFA and ultrasonic bath, before storage in ISO saline", "value": "optics were too blurry"},
      {"measurement": "lens surface seen through the lens under fluorescent light", "setting": "[1]; Soflens 38 after 7 days in SFA, before storage in ISO saline", "value": "rippled"},
      {"measurement": "physical appearance / handling of lenses placed or stored in the SFA", "setting": "[1]", "value": "curl up upon themselves; also recorded: became folded"},
      {"measurement": "reversibility of the change in optical quality", "setting": "[1]; after storage in standard saline (48 hours)", "value": "reversible"},
      {"measurement": "E-Modulus, Mean", "setting": "[2]", "value": 0.92, "unit": "MPa"},
      {"measurement": "Elongation to break, Mean", "setting": "[2]", "value": 146.35, "unit": "%"},
      {"measurement": "E-Modulus", "setting": "[2]; single samples", "value": "0.65 MPa and 0.63 MPa and 0.70 MPa and 1.07 MPa and 0.98 MPa and 0.89 MPa and 1.11 MPa and 1.14 MPa"}
    ]}
  ]
}
